This test deals with SIRT2 (as used in the co-immunoprecipitations of Fig. S2F–H) (UniProt Q8IXJ6). Nature of the test: co-IP; co-immunoprecipitation from HEK293 cells (Fig. S2F–H); bait and tags not told.

By UniProt entry, the sequences of proteins in these tests, tags left out. Where a name states a change or a piece, a line headed by the entry shows the natural chain unless it says otherwise.
UniProt Q8IXJ6: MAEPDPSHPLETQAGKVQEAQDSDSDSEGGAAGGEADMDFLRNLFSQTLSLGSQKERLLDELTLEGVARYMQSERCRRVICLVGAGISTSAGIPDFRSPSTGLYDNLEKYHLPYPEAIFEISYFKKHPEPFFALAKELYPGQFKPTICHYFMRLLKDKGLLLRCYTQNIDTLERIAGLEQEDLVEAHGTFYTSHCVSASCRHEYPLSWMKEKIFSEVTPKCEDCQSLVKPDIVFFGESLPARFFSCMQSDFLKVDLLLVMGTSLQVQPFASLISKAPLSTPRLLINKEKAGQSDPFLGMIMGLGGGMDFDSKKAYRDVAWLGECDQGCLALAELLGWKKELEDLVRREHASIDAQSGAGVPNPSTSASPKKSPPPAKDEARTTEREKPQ
UniProt P53618: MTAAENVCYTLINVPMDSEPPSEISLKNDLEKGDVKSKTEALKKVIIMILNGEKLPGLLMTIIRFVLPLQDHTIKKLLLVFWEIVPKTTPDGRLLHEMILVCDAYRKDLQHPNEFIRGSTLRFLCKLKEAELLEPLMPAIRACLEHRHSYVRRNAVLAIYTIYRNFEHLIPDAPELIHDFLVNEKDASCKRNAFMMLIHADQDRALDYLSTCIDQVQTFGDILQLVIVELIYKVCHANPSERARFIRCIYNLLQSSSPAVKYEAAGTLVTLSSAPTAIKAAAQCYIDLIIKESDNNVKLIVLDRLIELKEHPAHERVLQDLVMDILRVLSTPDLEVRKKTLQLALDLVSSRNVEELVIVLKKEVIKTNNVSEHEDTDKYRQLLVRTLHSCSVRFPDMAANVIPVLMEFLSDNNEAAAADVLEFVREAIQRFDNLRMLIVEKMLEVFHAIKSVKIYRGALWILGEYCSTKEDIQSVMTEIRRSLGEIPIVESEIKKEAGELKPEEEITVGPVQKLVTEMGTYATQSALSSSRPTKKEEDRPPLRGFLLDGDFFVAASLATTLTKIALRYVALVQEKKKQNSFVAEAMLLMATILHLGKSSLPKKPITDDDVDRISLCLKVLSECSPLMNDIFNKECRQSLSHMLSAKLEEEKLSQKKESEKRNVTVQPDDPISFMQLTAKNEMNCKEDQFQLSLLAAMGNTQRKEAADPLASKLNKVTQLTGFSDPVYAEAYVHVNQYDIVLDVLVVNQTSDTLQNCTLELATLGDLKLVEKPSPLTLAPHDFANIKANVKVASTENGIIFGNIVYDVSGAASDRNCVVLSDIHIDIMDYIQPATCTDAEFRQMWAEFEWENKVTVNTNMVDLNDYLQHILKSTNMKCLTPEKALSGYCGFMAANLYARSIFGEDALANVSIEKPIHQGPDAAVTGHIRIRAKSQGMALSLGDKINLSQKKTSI
UniProt P18754: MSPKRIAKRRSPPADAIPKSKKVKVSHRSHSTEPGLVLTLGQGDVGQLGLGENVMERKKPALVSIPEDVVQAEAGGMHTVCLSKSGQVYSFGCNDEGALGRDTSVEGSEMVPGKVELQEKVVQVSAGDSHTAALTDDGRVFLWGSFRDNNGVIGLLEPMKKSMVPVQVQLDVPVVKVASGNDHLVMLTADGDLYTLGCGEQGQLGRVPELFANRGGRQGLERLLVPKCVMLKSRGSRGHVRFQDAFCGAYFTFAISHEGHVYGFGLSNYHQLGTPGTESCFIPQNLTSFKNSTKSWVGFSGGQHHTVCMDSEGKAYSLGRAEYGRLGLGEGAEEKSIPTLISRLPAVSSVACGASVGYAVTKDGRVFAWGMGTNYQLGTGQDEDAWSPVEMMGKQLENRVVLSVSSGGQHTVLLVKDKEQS
UniProt Q13547: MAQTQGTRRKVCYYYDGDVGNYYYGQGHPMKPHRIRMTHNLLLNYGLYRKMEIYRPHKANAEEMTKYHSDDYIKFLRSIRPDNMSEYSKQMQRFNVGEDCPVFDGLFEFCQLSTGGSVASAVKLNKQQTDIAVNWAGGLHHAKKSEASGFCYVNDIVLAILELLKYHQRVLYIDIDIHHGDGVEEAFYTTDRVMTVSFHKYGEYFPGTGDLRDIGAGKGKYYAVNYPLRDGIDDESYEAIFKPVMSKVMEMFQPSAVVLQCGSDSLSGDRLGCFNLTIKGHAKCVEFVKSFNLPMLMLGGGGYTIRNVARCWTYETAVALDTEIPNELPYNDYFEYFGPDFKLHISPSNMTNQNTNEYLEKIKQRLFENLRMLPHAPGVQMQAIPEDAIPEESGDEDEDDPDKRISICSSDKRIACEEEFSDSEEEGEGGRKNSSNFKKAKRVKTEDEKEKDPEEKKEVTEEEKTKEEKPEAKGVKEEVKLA
UniProt Q15003: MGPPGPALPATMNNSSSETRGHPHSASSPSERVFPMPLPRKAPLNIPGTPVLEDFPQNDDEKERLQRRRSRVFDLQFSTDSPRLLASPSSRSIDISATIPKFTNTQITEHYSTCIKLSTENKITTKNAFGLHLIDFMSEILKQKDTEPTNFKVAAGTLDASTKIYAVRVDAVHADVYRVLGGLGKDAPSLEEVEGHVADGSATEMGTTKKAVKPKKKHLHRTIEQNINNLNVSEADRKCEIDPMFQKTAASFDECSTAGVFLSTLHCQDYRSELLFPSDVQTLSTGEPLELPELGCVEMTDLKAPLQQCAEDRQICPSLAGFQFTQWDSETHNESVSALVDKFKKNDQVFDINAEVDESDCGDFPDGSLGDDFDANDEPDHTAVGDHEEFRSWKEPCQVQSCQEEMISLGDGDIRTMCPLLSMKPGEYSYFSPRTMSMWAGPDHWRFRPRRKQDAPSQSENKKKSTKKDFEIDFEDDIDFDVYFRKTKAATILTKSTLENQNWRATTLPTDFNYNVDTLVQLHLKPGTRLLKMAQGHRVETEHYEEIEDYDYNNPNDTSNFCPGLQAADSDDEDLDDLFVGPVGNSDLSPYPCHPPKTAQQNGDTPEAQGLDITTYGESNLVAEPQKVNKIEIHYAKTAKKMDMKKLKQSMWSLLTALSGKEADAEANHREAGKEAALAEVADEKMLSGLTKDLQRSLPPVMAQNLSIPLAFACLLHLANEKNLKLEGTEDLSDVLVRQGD

Results on 6 molecules are retold here after PMC5201015.

These are yes or no findings as the source states them, for the method shown. In cells and extracts the contact can be indirect. A result given as binding can be weak or reduced; the word gives no strength.

Regarding “COPB1 (co-immunoprecipitation of Fig. S2F–H) (from UniProt P53618 1-953)”, the binding result was “binds”. Turning to “RCC1 (co-immunoprecipitation of Fig. S2F–H) (from UniProt P18754 1-421)”, the binding result is “binds”. Regarding “HDAC1 (co-immunoprecipitation of Fig. S2F–H) (from UniProt Q13547 1-482) (enzyme)”, the binding entry is “binds”. For “condensin subunit CND2 (also known as NCAPH) (co-immunoprecipitation of Fig. S2F–H) (from UniProt Q15003 1-741)”, the binding entry is on record as “binds”.

B1: COPG2 (co-immunoprecipitation of Fig. S2F–H) (protein, UniProt Q9UBF2 1-871)
chain: MIKKFDKKDEESGSGSNPFQHLEKSAVLQEARIFNETPINPRRCLHILTKILYLLNQGEHFGTTEATEAFFAMTRLFQSNDQTLRRMCYLTIKEMATISEDVIIVTSSLTKDMTGKEDVYRGPAIRALCRITDGTMLQAIERYMKQAIVDKVSSVSSSALVSSLHMMKISYDVVKRWINEAQEAASSDNIMVQYHALGVLYHLRKNDRLAVSKMLNKFTKSGLKSQFAYCMLIRIASRLLKETEDGHESPLFDFIESCLRNKHEMVIYEAASAIIHLPNCTARELAPAVSVLQLFCSSPKPALRYAAVRTLNKVAMKHPSAVTACNLDLENLITDSNRSIATLAITTLLKTGSESSVDRLMKQISSFVSEISDEFKVVVVQAISALCQKYPRKHSVMMTFLSNMLRDDGGFEYKRAIVDCIISIVEENPESKEAGLAHLCEFIEDCEHTVLATKILHLLGKEGPRTPVPSKYIRFIFNRVVLENEAVRAAAVSALAKFGAQNESLLPSILVLLQRCMMDTDDEVRDRATFYLNVLQQRQMALNATYIFNGLTVSVPGMEKALHQYTLEPSEKPFDMKSIPLAMAPVFEQKAEITLVATKPEKLAPSRQDIFQEQLAAIPEFLNIGPLFKSSEPVQLTEAETEYFVRCIKHMFTNHIVFQFDCTNTLNDQLLEKVTVQMEPSDSYEVLSCIPAPSLPYNQPGICYTLVRLPDDDPTAVAGSFSCTMKFTVRDCDPNTGVPDEDGYDDEYVLEDLEVTVSDHIQKVLKPNFAAAWEEVGDTFEKEETFALSSTKTLEEAVNNIITFLGMQPCERSDKVPENKNSHSLYLAGIFRGGYDLLVRSRLALADGVTMQVTVRSKERTPVDVILASVG
For B1, the binding result is “binds”.

B2: kinetochore-associated protein SKAP (also known as KNSTRN) (co-immunoprecipitation of Fig. S2F–H) (protein, UniProt Q9Y448 1-316)
chain: MAAPEAPPLDRVFRTTWLSTECDSHPLPPSYRKFLFETQAADLAGGTTVAAGNLLNESEKDCGQDRRAPGVQPCRLVTMTSVVKTVYSLQPPSALSGGQPADTQTRATSKSLLPVRSKEVDVSKQLHSGGPENDVTKITKLRRENGQMKATDTATRRNVRKGYKPLSKQKSEEELKDKNQLLEAVNKQLHQKLTETQGELKDLTQKVELLEKFRDNCLAILESKGLDPALGSETLASRQESTTDHMDSMLLLETLQEELKLFNETAKKQMEELQALKVKLEMKEERVRFLEQQTLCNNQVNDLTTALKEMEQLLEM
As to B2, the binding result was “binds”.
